Reference: article PMC10936415

Target: Legionella hackeliae Lha0223 (VipF ortholog), 6xHis-SBP-tagged (Legionella hackeliae)
Experiment: affinity purification with mass spectrometry; only the target purified

B1: DEAD-box helicase 57 (protein, UniProt Q6P158 1-1386)
chain: MSSSVRRKGKPGKGGGKGSSRGGRGGRSHASKSHGSGGGGGGGGGGGGGNRKASSRIWDDGDDFCIFSESRRPSRPSNSNISKGESRPKWKPKAKVPLQTLHMTSENQEKVKALLRDLQEQDADAGSERGLSGEEEDDEPDCCNDERYWPAGQEPSLVPDLDPLEYAGLASVEPYVPEFTVSPFAVQKLSRYGFNTERCQAVLRMCDGDVGASLEHLLTQCFSETFGERMKISEAVNQISLDECMEQRQEEAFALKSICGEKFIERIQNRVWTIGLELEYLTSRFRKSKPKESTKNVQENSLEICKFYLKGNCKFGSKCRFKHEVPPNQIVGRIERSVDDSHLNAIEDASFLYELEIRFSKDHKYPYQAPLVAFYSTNENLPLACRLHISEFLYDKALTFAETSEPVVYSLITLLEEESEIVKLLTNTHHKYSDPPVNFLPVPSRTRINNPACHKTVIPNNSFVSNQIPEVEKASESEESDEDDGPAPVIVENESYVNLKKKISKRYDWQAKSVHAENGKICKQFRMKQASRQFQSILQERQSLPAWEERETILNLLRKHQVVVISGMTGCGKTTQIPQFILDDSLNGPPEKVANIICTQPRRISAISVAERVAKERAERVGLTVGYQIRLESVKSSATRLLYCTTGVLLRRLEGDTALQGVSHIIVDEVHERTEESDFLLLVLKDIVSQRPGLQVILMSATLNAELFSDYFNSCPVITIPGRTFPVDQFFLEDAIAVTRYVLQDGSPYMRSMKQISKEKLKARRNRTAFEEVEEDLRLSLHLQDQDSVKDAVPDQQLDFKQLLARYKGVSKSVIKTMSIMDFEKVNLELIEALLEWIVDGKHSYPPGAILVFLPGLAEIKMLYEQLQSNSLFNNRRSNRCVIHPLHSSLSSEEQQAVFVKPPAGVTKIIISTNIAETSITIDDVVYVIDSGKMKEKRYDASKGMESLEDTFVSQANALQRKGRAGRVASGVCFHLFTSHHYNHQLLKQQLPEIQRVPLEQLCLRIKILEMFSAHNLQSVFSRLIEPPHTDSLRASKIRLRDLGALTPDERLTPLGYHLASLPVDVRIGKLMLFGSIFRCLDPALTIAASLAFKSPFVSPWDKKEEANQKKLEFAFANSDYLALLQAYKGWQLSTKEGVRASYNYCRQNFLSGRVLQEMASLKRQFTELLSDIGFAREGLRAREIEKRAQGGDGVLDATGEEANSNAENPKLISAMLCAALYPNVVQVKSPEGKFQKTSTGAVRMQPKSAELKFVTKNDGYVHIHPSSVNYQVRHFDSPYLLYHEKIKTSRVFIRDCSMVSVYPLVLFGGGQVNVQLQRGEFVVSLDDGWIRFVAASHQVAELVKELRCELDQLLQDKIKNPSIDLCTCPRGSRIISTIVKLVTTQ
  binding: binds

Results are given in words; binding and its absence hold for the method and conditions named. In cells and extracts the contact can be indirect. These calls come from enrichment with a bait or labelling near it, and not all partners need be listed.
